Measured data: PubChem BioAssay AID720505 (Drosophila RNAi Screening Center, 2013)
The deposit covers about 20,000 reagents; this is an unselected part of those with a known target gene and a result. Over the whole deposit, about 2,100 (10%) got an active call. 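Raw plate signals without normalisation; calls rest on control-based scores that were not deposited; replicate 2 separates called from uncalled poorly.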 The numbers tell different reagents against one gene apart. Names joined by + are all predicted targets of the reagent. The record does not give: the amount of reagent, the time to read-out.

Aim: 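Fly regulators or components of the CRAC channel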 (primary screen)
Cell system: Drosophila S2R+ cells
Knock-down reagent: long dsRNA against Drosophila genes
Challenge: thapsigargin (2 µM) in calcium-free buffer to empty internal stores, then 2 mM calcium added back
Measured: 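Fluo-4 signal in 384-well plates read on a FLIPR after thapsigargin (2 µM, calcium-free) store depletion and 2 mM calcium add-back; unnormalised mean endpoint per well; screen run twice, selected wells retested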
Reading the numbers: calcium signal and retest calcium signal: higher = more calcium entry after store depletion
Call rule: 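About 1500 genes called as lowering calcium entry, by varying amounts, judged against per-plate control wells with STIM1 as positive and Rho1 as negative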
Calls: active = called as lowering calcium entry; inactive = not called

target gene,reagent,"calcium signal, replicate 1","calcium signal, replicate 2","retest calcium signal, replicate 1","retest calcium signal, replicate 2",outcome
CR33221 (pseudo),1,127,150,,,inactive
Sil1 (Sil1 nucleotide exchange factor),1,241,236,,,inactive
PpD3 (Protein phosphatase D3),1,136,87.4,,,inactive
CG11986,1,150,103,,,inactive
Taf11 (TBP-associated factor 11),1,178,142,,,inactive
Fnta (Farnesyl transferase alpha subunit),1,102,162,,,inactive
mab-21,1,229,89.7,,,inactive
CG3568,1,177,120,,,inactive
fzy (fizzy),1,48.3,36.3,,,active
TfIIFalpha (Transcription factor IIFalpha),1,109,115,,,inactive
CG9044,1,119,185,,,inactive
snoRNA:Me28S-C3420b + RpS11,1,117,178,,,inactive
CG3108,1,130,78.7,,,inactive

In a second layout: entries from further up
CG11986
- calcium signal, replicate 1: 150
- calcium signal, replicate 2: 103
- outcome: inactive

Taf11 (TBP-associated factor 11)
- calcium signal, replicate 1: 178
- calcium signal, replicate 2: 142
- outcome: inactive

Fnta (Farnesyl transferase alpha subunit)
- calcium signal, replicate 1: 102
- calcium signal, replicate 2: 162
- outcome: inactive

Continued.
target gene,reagent,"calcium signal, replicate 1","calcium signal, replicate 2","retest calcium signal, replicate 1","retest calcium signal, replicate 2",outcome
CG7367,1,96.1,145,,,inactive
CG31549,1,187,97.4,,,inactive
Ir48b (Ionotropic receptor 48b),1,77.8,157,,,inactive
CG12017,1,94.3,91.2,,,inactive
CG17698,1,96.9,125,,,inactive
Uba2 (Ubiquitin-like activating enzyme 2),1,80.2,70.4,,,inactive
fzr2 (fizzy-related 2),1,130,126,,,inactive
CG31415,1,78,125,,,inactive
CG34056,1,83,99.5,,,inactive
Nuf2,1,114,187,,,inactive
CG13228,1,70.2,112,,,inactive
CG14113,1,81.4,88.6,,,inactive
Hsc70-3 (Heat shock protein 70 cognate 3),1,55.4,81.4,,,active
Df31 (Decondensation factor 31),1,154,79.2,111,106,inactive
Df31 (Decondensation factor 31),2,105,161,,,inactive
CG15894,1,156,111,,,inactive
CG15894,2,57.6,143,,,active
Rdl (Resistant to dieldrin),1,99.1,113,,,inactive
CG15225,1,167,101,,,inactive
CG15225,2,90.9,145,,,inactive
CG34159,1,156,139,,,inactive
CG34159,2,71.7,99.7,,,inactive
